Here are results for one molecule from PMC9489540.

No constants are given. Whether binding was seen depends on the method and setting. In cells and extracts the contact can be indirect. Some binding calls cover weakened binding; strength is not graded here. Tags and fused reporters may be left off the sequences shown.

The target in the experiment is T1, His-TRAF2 and Flag-TRAF2 (two differently tagged copies of TRAF2), Q12933.
T1 chain: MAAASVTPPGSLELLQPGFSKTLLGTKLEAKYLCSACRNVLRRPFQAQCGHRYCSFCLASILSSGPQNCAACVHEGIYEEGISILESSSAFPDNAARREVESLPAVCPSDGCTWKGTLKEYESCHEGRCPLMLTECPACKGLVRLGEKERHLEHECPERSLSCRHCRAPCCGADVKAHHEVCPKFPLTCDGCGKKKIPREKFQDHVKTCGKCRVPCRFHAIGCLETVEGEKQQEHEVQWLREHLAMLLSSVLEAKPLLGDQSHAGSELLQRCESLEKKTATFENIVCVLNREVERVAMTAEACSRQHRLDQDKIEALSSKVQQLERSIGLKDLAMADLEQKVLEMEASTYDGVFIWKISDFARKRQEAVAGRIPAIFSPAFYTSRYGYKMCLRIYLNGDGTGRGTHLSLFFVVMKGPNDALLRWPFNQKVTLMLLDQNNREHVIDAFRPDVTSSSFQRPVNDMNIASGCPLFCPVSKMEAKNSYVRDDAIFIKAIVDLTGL
As to the kind of experiment: co-IP; His-TRAF2 with Flag-TRAF2, cells with or without circ-0110634 up-regulation; cell type and bait not stated; western blot. To be noted: remark: other sources report otherwise. Background: Immunoblotting shows a protein as a band on a membrane.

B1: His-TRAF2 and Flag-TRAF2 (two differently tagged copies of TRAF2), Q12933 1-501 (protein)
chain: T1 chain
Take B1: the binding entry is recorded as “binds”.
